Where a chain is given by its changes, count along the chain named. Results are given in words; binding and its absence hold for the method and conditions named. Binding seen in cells or lysates may run through a third protein. These calls come from enrichment with a bait or labelling near it, and not all partners need be listed. For some assays here: No binding means not detected with the bait.

Amino acid sequences for entries named in this document (tags omitted).
UniProt P23242: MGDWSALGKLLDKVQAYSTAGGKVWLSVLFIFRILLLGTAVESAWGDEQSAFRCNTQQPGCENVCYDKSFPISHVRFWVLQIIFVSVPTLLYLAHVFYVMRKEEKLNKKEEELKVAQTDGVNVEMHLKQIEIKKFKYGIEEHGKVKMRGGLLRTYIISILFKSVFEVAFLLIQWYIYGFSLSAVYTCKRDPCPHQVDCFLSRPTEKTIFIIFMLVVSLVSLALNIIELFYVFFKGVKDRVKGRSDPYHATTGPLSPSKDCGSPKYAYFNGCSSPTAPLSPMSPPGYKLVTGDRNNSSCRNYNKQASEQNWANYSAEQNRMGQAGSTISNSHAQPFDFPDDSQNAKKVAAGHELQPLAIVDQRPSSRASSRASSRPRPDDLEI
UniProt P09405: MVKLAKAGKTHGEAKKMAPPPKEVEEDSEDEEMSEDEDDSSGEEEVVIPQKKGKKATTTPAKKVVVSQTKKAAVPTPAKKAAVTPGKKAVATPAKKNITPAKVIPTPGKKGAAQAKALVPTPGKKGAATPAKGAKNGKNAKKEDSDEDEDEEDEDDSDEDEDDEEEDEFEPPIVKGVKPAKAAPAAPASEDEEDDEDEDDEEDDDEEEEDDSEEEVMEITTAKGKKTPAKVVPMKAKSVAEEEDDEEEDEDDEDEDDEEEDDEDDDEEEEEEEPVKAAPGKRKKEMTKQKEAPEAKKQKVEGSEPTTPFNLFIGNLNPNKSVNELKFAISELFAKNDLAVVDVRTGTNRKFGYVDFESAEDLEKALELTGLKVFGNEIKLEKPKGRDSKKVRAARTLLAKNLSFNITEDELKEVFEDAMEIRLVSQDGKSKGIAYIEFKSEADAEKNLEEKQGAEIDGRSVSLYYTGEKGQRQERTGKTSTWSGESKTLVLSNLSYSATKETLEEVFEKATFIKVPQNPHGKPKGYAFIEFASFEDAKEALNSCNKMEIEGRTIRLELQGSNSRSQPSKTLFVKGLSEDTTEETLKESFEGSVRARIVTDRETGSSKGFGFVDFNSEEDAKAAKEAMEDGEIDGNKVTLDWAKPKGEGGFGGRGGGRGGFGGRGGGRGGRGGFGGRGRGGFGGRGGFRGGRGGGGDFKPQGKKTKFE
UniProt P63168: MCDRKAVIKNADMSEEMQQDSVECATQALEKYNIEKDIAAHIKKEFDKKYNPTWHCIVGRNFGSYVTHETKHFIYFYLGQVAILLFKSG
UniProt Q61879: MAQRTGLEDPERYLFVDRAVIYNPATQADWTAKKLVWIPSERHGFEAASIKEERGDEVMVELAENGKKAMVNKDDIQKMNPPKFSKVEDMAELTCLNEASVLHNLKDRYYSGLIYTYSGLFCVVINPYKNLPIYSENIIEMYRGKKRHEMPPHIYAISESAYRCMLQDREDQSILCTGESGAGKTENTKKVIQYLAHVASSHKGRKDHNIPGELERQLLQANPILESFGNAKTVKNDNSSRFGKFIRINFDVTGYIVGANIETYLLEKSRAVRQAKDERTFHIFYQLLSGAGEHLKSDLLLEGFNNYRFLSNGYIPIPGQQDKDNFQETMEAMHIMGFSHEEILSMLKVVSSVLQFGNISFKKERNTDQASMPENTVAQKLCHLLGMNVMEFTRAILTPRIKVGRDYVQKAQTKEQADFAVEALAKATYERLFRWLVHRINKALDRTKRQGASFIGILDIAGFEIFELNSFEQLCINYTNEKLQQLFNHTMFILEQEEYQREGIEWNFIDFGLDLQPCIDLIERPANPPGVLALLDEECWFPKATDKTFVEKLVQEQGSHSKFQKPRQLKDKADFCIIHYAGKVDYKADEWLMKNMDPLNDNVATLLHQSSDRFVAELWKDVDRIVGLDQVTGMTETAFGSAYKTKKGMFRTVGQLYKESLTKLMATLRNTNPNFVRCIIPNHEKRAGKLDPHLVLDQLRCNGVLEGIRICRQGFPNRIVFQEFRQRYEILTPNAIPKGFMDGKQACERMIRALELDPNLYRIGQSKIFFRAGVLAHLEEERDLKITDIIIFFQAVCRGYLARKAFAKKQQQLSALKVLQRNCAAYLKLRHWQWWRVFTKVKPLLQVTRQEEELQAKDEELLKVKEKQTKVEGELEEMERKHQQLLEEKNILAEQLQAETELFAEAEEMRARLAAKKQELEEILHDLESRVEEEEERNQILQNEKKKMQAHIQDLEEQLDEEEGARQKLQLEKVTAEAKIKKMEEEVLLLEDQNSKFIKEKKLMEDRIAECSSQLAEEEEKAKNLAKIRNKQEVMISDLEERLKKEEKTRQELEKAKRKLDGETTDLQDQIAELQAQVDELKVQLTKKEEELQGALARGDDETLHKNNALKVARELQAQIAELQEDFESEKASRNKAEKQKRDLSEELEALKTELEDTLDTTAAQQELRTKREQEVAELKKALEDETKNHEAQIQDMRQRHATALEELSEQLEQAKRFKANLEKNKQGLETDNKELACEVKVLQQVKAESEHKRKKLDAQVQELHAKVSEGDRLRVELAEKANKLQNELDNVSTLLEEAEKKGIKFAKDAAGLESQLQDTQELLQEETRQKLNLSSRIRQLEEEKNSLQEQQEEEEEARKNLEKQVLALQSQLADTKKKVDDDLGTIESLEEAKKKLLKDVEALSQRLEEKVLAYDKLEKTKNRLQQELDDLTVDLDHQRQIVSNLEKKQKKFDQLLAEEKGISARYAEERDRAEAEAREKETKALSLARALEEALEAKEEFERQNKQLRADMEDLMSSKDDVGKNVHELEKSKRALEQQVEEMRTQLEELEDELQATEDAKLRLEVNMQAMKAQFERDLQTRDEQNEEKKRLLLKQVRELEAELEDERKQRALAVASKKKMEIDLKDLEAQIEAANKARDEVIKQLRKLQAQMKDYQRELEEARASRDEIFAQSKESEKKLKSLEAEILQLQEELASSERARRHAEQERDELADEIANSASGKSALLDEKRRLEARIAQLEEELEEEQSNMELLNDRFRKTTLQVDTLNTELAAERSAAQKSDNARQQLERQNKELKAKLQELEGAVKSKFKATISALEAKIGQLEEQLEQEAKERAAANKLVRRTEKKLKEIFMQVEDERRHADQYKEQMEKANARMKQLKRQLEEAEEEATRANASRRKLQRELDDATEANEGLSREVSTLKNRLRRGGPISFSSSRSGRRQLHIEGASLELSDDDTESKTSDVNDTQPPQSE
UniProt P68510: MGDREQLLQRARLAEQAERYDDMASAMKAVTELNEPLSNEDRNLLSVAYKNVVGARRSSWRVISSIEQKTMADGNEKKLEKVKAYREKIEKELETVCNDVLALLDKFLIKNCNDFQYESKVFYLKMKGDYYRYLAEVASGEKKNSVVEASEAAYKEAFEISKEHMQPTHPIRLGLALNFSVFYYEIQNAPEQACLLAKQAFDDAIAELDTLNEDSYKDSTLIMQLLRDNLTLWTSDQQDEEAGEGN
UniProt P63101: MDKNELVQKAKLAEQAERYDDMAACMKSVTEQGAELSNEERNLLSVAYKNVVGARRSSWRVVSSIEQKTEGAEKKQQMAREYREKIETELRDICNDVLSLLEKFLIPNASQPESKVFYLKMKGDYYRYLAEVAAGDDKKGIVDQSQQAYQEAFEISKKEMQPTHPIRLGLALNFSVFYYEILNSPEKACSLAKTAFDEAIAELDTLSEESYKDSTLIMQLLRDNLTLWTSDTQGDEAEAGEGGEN
UniProt P62259: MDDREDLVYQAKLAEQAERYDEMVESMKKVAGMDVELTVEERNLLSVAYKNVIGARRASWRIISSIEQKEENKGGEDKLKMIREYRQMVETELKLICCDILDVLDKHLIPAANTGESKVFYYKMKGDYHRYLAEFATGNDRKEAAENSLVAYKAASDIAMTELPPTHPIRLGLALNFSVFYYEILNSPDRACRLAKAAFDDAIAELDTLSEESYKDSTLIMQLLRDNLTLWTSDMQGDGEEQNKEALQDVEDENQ

Assay [1] deals with T1, EML3 TQT86AAA of homozygous Eml3 TQT86AAA knock-in mice (mouse (endogenous in placenta lysate)) (UniProt Q8VC03).
T1 sequence: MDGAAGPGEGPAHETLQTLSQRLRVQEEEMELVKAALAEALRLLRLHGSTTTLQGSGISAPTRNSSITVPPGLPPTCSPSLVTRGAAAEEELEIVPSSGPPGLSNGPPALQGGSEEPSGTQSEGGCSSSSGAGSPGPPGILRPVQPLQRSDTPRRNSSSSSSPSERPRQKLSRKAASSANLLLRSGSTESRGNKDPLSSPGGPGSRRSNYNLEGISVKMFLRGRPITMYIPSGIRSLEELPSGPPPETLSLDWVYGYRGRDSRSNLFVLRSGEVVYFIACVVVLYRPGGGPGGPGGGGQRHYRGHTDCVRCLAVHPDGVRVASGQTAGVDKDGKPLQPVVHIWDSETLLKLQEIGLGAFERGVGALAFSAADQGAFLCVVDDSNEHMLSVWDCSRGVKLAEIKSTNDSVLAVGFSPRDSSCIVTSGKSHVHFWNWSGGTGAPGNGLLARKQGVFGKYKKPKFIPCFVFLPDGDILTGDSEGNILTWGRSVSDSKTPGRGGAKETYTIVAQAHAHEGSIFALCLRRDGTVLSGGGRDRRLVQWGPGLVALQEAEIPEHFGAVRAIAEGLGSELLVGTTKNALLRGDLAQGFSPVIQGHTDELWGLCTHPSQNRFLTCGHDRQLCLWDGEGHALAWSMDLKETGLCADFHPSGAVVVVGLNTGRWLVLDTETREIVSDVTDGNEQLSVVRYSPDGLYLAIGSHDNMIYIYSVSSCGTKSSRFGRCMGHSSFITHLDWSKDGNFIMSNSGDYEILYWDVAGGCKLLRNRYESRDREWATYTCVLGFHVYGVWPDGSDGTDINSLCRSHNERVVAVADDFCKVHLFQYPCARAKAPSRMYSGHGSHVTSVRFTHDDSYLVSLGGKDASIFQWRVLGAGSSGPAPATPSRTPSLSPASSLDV
Nature of the assay: affinity purification with mass spectrometry; immunoprecipitation with affinity-purified rabbit polyclonal anti-EML3 C-terminal antibody on anti-rabbit IgG Dynabeads from 1.5 mg mouse tissue lysate (E15.5 whole embryo, E12.5 embryo head, E12.5 placenta; 0.5% NP-40 lysis buffer), overnight 4 C; on-bead trypsin digestion; Eml3-/- tissue or control IgG as controls.

Assay [2] has as its target T2, Echinoderm microtubule-associated protein-like 3 (mouse (endogenous in embryo and placenta lysates)) (UniProt Q8VC03).
T2 sequence: T1 sequence with A86T, A87Q, A88T
Described as above.

For “Gap junction alpha-1 protein (from UniProt P23242 1-382)”, the binding result in assay [1] and in assay [2] was “binds” in each case. Turning to Nucleolin (from UniProt P09405 1-707), the binding entry in assay [2] is “binds”. As for “Dynein light chain 1, cytoplasmic (from UniProt P63168 1-89)”, the binding result in assay [1] was “no binding”; in assay [2], “binds”. For the molecule Myosin-10 (from UniProt Q61879 1-1976), in assay [2], the binding entry is listed as “binds”. In the case of “14-3-3 protein eta (from UniProt P68510 1-246)”, the binding result in assay [1] and in assay [2] was “binds” each time. Regarding “14-3-3 protein zeta/delta (from UniProt P63101 1-245)”, the binding entry in assay [1] and in assay [2] was “binds” each time.

Regarding “Fibrillin-2 (from UniProt Q61555 78-2773)”, in assay [2], the binding result was “binds”. On the same count and under the same terms, in the case of “14-3-3 protein epsilon (from UniProt P62259 1-255)” it was “binds”; in that of Integrin alpha-5, “binds”.

B1: Sfrs10 protein (protein, UniProt P62996 1-288)
chain: MSDSGEQNYGERESRSASRSGSAHGSGKSARHTPARSRSKEDSRRSRSKSRSRSESRSRSRRSSRRHYTRSRSRSRSHRRSRSRSYSRDYRRRHSHSHSPMSTRRRHVGNRANPDPNCCLGVFGLSLYTTERDLREVFSKYGPIADVSIVYDQQSRRSRGFAFVYFENVDDAKEAKERANGMELDGRRIRVDFSITKRPHTPTPGIYMGRPTYGSSRRRDYYDRGYDRGYDDRDYYSRSYRGGGGGGGGWRAAQDRDQIYRRRSPSPYYSRGGYRSRSRSRSYSPRRY
Turning to B1, the binding entry in assay [2] is “binds”.

B2: 14-3-3 protein gamma (protein, UniProt P61982 1-247)
chain: MVDREQLVQKARLAEQAERYDDMAAAMKNVTELNEPLSNEERNLLSVAYKNVVGARRSSWRVISSIEQKTSADGNEKKIEMVRAYREKIEKELEAVCQDVLSLLDNYLIKNCSETQYESKVFYLKMKGDYYRYLAEVATGEKRATVVESSEKAYSEAHEISKEHMQPTHPIRLGLALNYSVFYYEIQNAPEQACHLAKTAFDDAIAELDTLNEDSYKDSTLIMQLLRDNLTLWTSDQQDDDGGEGNN
For B2, the binding entry in assay [2] is “binds”.

B3: 14-3-3 protein theta (protein, UniProt P68254 1-245)
chain: MEKTELIQKAKLAEQAERYDDMATCMKAVTEQGAELSNEERNLLSVAYKNVVGGRRSAWRVISSIEQKTDTSDKKLQLIKDYREKVESELRSICTTVLELLDKYLIANATNPESKVFYLKMKGDYFRYLAEVACGDDRKQTIENSQGAYQEAFDISKKEMQPTHPIRLGLALNFSVFYYEILNNPELACTLAKTAFDEAIAELDTLNEDSYKDSTLIMQLLRDNLTLWTSDSAGEECDAAEGAEN
Regarding B3, the binding result in assay [1] and in assay [2] was “binds” each time.

The values above are taken from article PMC13349382.
